# Percent effect of library compounds

A: 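Growth of Mycobacterium tuberculosis over 3 days (7H9 medium with glucose and tyloxapol); the read-out is not stated. Compounds at 50 µM. The record gives no direction; compounds that gave an IC50 in retests scored well above the rest, so higher reads as more growth inhibition. Size under these conditions: about 69,000 compounds, about 760 of them at 50% or above in at least one test.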
B: 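Phenotypic screen: M. tuberculosis growth, cholesterol and DPPC medium, 4 days; the read-out is not stated. Concentration: 50 µM. The record gives no direction; compounds that gave an IC50 in retests scored well above the rest, so higher reads as more growth inhibition. About 69,000 compounds were tested under these conditions; 0.54% (about 370) showed 50% or more at least once.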

Results are given as percent effect. How 0% and 100% were set is not recorded. Most values in the screen are low, and negative values occur. The compounds are a random part of those screened. Two or more numbers in one place are separate tests of the same structure; such repeats can differ widely.

With O=C(O)C(F)(F)F.[H][C@@]12CCN(C3CCCCC3)C[C@]1(C(=O)N1CCOCC1)CCO2 the screen gave A: -17.05%; B: -28.76%. [H][C@]12CC[C@]([H])(CN(Cc3[nH]cnc3C)C1)N(CCCSC)C2 gave A: 2.029% & 3.743%; B: 16.65%. For O=C(O)C(F)(F)F.O=C(O)C(F)(F)F.c1cncc(OC[C@@H]2CCC[C@@]23CN(Cc2nccs2)CCO3)c1 the result was A: 3.803%; B: 19.83% & 4.859%. Result for N#Cc1cnc(N2CCC3(CC2)OCCO3)nc1N was A: -5.837%; B: -9.671%.

For CC1CCN(c2ncc3c(n2)CN(Cc2cccc(F)c2)C3=O)CC1 the result was A: -0.1611%; B: 16.26%. O=C(O)C(F)(F)F.c1cnc(NC2COC3(CCN(Cc4nccs4)CC3)C2)cn1 (stereo not given) read A: -8.122%; B: -5.649% & 12.21%. With NC(=O)CCC(=O)N1CCc2[nH]nc(-c3ccc4c(c3)OCO4)c2C1 the screen gave A: -1.413% & 2.049%; B: 13.02% & 0.8297%. For CCN1CC2(CCN(C(=O)C(C)Oc3cccc(Cl)c3)CC2)OC1=O (stereo not given) the result was A: -1.938%; B: -1.323%.

Result for Cc1ccc2nc(C3CCN(CCO)CC3)nn2c1 was A: -33.76%; B: -6.841%. For CN(CCCc1nccn1C)c1nccc(-c2cc(C(=O)O)ccn2)n1 the result was A: -0.5268% & 3.198%; B: -16.3%. With CCc1nccc(CN2CCC(CNC(=O)[C@H]3CC[C@H](C)CC3)C2)n1 (stereo not given in full) the screen gave A: -1.088%; B: 5.019% & -21.03%. Result for Cn1ccnc1CN1CCC2(CC(=O)N(c3cncnc3)C2)C1.O=C(O)C(F)(F)F (stereo not given) was A: 62.97%; B: -10.67%.

Result for [H][C@@]12COC[C@]1(c1nnc(C(C)C)o1)CN(C(=O)c1cc(C)no1)C2 was A: 29.29% & -3.727%; B: 6.318%. Result for O=C(N1CCN(c2ccccc2O)CC1)C1(O)Cc2ccccc2C1 was A: 14.53%; B: 17.42%. Result for Cc1ccnc(C(NC(=O)c2ncoc2C)C2CC2)n1 (stereo not given) was A: 28.14%; B: -5.37%. Cc1nnc(SCC(=O)c2cc3c(cc2Cl)NC(=O)C3)o1 read A: -10.77%; B: -23.74%.

For C=C(C)CSc1nnc(CCNC(=O)OC(C)(C)C)o1 the result was A: 54.65%; B: 57.6%. For Cc1cc(C)n(C2CCCN(C(=O)c3c[nH]c(=O)c(Cl)c3)C2)n1 (stereo not given) the result was A: 19.56%; B: 24.99%. For O=C(c1cccnc1N1CCCCC1)N1CCCC(n2cccn2)C1 (stereo not given) the result was A: 4.031%; B: -21.78%. COCC(=O)N[C@H](C(=O)NC(C)c1cccc(C)c1C)C(C)C (stereo not given in full) read A: -2.231%; B: -7.781%.

COc1cc(CNc2cc(N3CCCC3CO)ncn2)ccn1 (stereo not given) gave A: 11.28%; B: -15.91%. CC1CN(C(=O)C2(c3cccc(F)c3)CCOCC2)CCO1 (stereo not given) gave A: 14.23%; B: -4.721%. For CC1CN(C(=O)C2(c3ccc(F)cc3F)CCOCC2)CCO1 (stereo not given) the result was A: 13.99%; B: 7.096%. CCN(Cc1ccncc1)CC1(O)CCN(C(=O)c2ccccc2C)C1 (stereo not given) gave A: -10.4%; B: -31.66%.

O=C(c1cncs1)N1CCCC1c1ccn[nH]1 (stereo not given) read A: -25.01%; B: -18.6%. For CCCc1nnc(NC(=O)NC(CCO)c2cccs2)s1 (stereo not given) the result was A: 8.37%; B: 12.06%. With CS(=O)(=O)Cc1ccc(Cl)cc1NCc1cccc(F)c1F the screen gave A: 39.24%; B: 20.3%. With c1ccc(CN2CCC(NCCSc3ncn[nH]3)C2)cc1 (stereo not given) the screen gave A: -4.844%; B: 1.489%.

With CN(Cc1cc(-c2cccnc2)no1)C(=O)C1CCCN1S(C)(=O)=O (stereo not given) the screen gave A: 12.37%; B: -12.45%. Result for Cl.O=C(NC[C@@]1(COc2cnccn2)C[C@@H](O)[C@@H](O)C1)C1CCCC1 was A: -5.077% & -5.951%; B: -13%. With COC(=O)CCC(=O)N1CCC2(CN(Cc3ccccc3)C2)C1 the screen gave A: -40.34%; B: -8.556%. CCn1cc(CN2CCN(Cc3cccc(OC)c3)C(=O)C2)cc1C#N gave A: 3.914%; B: -17.51%.

CCS(=O)(=O)NCCNc1c(C#N)cnc2c(F)cc(F)cc12 gave A: -15.33% & 5.027%; B: -26.62%. CCN(CC)CCSc1ncnc2[nH]ncc12 read A: -1.246%; B: -16.05%. COC[C@@H]1CCC[C@@]12CN(C(=O)N(C)C)CCO2 gave A: -26.78%; B: -24.71%. FC(F)(F)Cn1ccnc1CN1CCCC1c1noc(C2CC2)n1 (stereo not given) read A: -31.07%; B: -52.28%.

Source: ChEMBL document CHEMBL3988442, “University of Dundee, Small-Polar-MMV Screening Library” (2021).